Results are given in words; binding and its absence hold for the method and conditions named. Binding seen in cells or lysates may run through a third protein. Some binding calls cover weakened binding; strength is not graded here.
Key:
[1] = target: fused in sarcoma (FUS) (human (endogenous in MCF-7)) (UniProt P35637); test: co-IP; MCF-7_RBKO lysates (NP-40 lysis buffer: 20 mM Tris-HCl pH 7.6, 150 mM NaCl, 0.1% NP-40, 1 mM EDTA) with a PRMT5 or a FUS antibody or control IgG overnight at 4°C, protein-G Dyna beads, immunoblot; in Fig. 4H cells treated with DMSO or 500 nM pemrametostat for three days before the FUS co-IP
[2] = target: protein arginine methyltransferase 5 (PRMT5) (human (endogenous in MCF-7)) (UniProt O14744); test: as above

By UniProt entry, the sequences of proteins in these tests, tags left out.
UniProt P35637: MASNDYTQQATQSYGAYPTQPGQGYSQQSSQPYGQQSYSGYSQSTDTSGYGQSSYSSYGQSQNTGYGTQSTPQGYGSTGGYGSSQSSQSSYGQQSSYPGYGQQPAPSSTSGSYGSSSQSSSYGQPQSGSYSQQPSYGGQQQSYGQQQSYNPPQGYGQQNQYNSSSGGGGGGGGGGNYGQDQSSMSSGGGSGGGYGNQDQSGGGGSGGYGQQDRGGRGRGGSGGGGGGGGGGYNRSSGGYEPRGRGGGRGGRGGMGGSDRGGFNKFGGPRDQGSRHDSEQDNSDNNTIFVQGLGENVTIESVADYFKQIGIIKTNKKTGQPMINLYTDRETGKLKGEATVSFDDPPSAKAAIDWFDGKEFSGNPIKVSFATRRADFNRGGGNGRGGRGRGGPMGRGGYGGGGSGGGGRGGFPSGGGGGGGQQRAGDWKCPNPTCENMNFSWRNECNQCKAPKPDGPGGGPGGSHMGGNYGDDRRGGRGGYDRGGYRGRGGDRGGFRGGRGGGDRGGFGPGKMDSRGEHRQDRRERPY
UniProt O14744: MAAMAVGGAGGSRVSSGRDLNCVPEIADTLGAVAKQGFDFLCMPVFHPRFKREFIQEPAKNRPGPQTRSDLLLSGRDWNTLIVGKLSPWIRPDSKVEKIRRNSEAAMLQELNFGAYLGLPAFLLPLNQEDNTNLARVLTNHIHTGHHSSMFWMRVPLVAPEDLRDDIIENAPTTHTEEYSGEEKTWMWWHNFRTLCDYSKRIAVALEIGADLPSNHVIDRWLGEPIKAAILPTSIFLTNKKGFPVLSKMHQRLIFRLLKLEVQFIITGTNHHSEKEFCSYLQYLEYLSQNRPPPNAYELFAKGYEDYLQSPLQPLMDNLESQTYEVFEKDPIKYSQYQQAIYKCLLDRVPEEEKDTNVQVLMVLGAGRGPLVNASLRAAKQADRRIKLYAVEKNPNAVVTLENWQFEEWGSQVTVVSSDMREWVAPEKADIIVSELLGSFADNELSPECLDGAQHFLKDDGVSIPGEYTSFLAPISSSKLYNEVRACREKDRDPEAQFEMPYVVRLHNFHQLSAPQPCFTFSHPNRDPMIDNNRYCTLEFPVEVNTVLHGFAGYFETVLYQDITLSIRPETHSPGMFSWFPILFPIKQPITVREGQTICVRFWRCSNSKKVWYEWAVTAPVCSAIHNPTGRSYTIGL
UniProt Q9BQA1: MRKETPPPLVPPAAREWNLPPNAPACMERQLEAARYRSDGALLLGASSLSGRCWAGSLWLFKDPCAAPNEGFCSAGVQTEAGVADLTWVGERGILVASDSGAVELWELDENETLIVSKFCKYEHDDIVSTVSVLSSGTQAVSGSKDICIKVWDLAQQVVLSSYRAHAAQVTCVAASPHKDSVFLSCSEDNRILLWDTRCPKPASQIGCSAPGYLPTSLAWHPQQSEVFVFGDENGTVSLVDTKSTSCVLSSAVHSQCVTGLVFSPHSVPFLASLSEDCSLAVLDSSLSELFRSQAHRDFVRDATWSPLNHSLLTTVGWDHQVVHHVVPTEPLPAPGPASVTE

Row | binding [1] | binding [2] | Substance
1 | binds | – | MEP50 (also known as WDR77) (from UniProt Q9BQA1 1-342)
2 | – | binds | fused in sarcoma (FUS) (from UniProt P35637 1-526)
3 | binds | – | protein arginine methyltransferase 5 (PRMT5) (from UniProt O14744 1-637) (enzyme)

— article PMC10371097
